Out of some 210,000 compounds screened, about 5,900 (2.8%) were called active. Inconclusive results (about 5%) are left out. Calls follow the shape of the dose curve; as a rule, active = well fitted activation curve with a large enough effect; inconclusive = small, poorly fitted or top-dose-only effect; inactive = no such curve, though single readings can be large or run the other way. Only a part is listed here, and it is no random draw. Entries without a call were filed so in the source.
Potency is read from the fitted curve at half-maximal effect.

The assay can be described thus: qHTS Assay for Enhancers of SMN2 Splice Variant Expression. Also: nearly all actives have a fitted effect of over 55% in size. As to activity change, positive = activation: % of control where 0% means no effect. The conditions noted are these: HEK293 SMN2-luciferase splicing reporter, luminescence, 30-36 h; activity change, positive = activation: at 46.1 µM (top of the series) unless noted. The gist of the method: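 HEK293 cells carry an SMN2 […]–luciferase reporter in which exon 7 inclusion puts luciferase in frame. Cells were plated 10-12 h before compound addition, then incubated 30-36 h at 37C. ONE-Glo luminescence was read; sodium butyrate at 4.5 mM final served as control.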
In general terms: Quantitative high-throughput screening tests each substance at several concentrations.
For the compound `Cc1ccc(Nc2cc(C)nn2-c2nc(C)cc(C)n2)cc1`, the “activity change, positive = activation” value was inactive: -39.9%.
For `Cc1ccccc1CSc1ccc(-c2ccc3c(c2)OCO3)nn1`, the activity change, positive = activation amounted to 114%.
For the compound `CCOC(=O)CN/C=C(\C#N)c1ccccc1`, the “activity change, positive = activation” value is inactive: -8.16%.
For the compound `CCOc1ccccc1NC(=O)Nc1ccc(Cl)cc1`, the “activity change, positive = activation” value is inactive: -20.6%.
For `O=C(Cc1c(Sc2ccccc2)c2ccccc2n1Cc1ccccc1)NCCO`, the activity change, positive = activation was -69.8%.
For `COc1cccc(OCCSc2nc(N)cc(N)n2)c1`, the “activity change, positive = activation” value was inactive: -63.1%.
Same read-out and setting: the result for `COc1ccc(Nc2oc(COc3ccc(C)cc3)nc2C#N)cc1` reads inactive: -87.3%; that for `COc1ccc2c(c1)CC/C(=C/c1ccncc1)C2=O`, inactive: -58.1%.
Consider `CCc1ccc(C2=NN(C(C)=O)C(c3ccco3)C2)cc1` (centres undefined), for which the Potency was active: 12.6 µM.
`Cc1cc2ccccc2n1CCNC(=O)c1ccccc1`: the “activity change, positive = activation” value was inactive: -54.1%.
Turning to `Cc1ccc(-c2cc(-c3cccc(F)c3)n[nH]2)c(O)c1`, the Potency is active: 14.1 µM.
On to `CC(=O)NC(C(=O)O)C(C)(C)SN=O` (centres undefined), for which the “activity change, positive = activation” value is inactive: -3.19%.
On the same count and under the same terms, the result for `CCOC(=O)/C(C#N)=C\c1c(OCC)n(CC)c2ccccc12` reads inactive: -14.6%.
For `O=C(Nc1ccc(SC(F)(F)F)cc1)c1ccccn1`, the Potency is active: 2.24 µM.
Regarding `O=C(Nc1ccc(N2CCCCC2)c(Cl)c1)c1cccnc1`, the Potency was active: 12.6 µM.
On to `COc1cccc(OC)c1C(=O)Nc1ccccc1C(=O)N1CCOCC1`, for which the activity change, positive = activation was 24.6%.
On to `C/C(=N\NC(=O)c1cccc(N/N=C(\C)c2cc(O)ccc2O)c1)c1cc(O)ccc1O`, for which the “activity change, positive = activation” value was inactive: -56.1%.
In the case of `CCc1ccc(CNc2ccc(O)cc2)cc1`, the activity change, positive = activation came out at 46.7%.
In the case of `Nc1c(C(=O)NCc2ccc3c(c2)OCO3)c2nc3ccccc3nc2n1CCCN1CCOCC1`, the activity change, positive = activation was -60.3%.
On the same count and under the same terms, the result for `COc1ccc2c(c1)O[C@@H](c1ccc3c(c1)OCO3)[C@H](OC(=O)N[C@H](C)C1CCCCC1)C2=O` reads inactive: -1.22%.
For `COCCn1c(C)cc(C2=NNC(=NC3CC3)SC2)c1C`, the “activity change, positive = activation” value is inactive: -103%.
For `O=C(COc1ccccc1)NC1CCN(Cc2ccccc2)CC1`, the activity change, positive = activation worked out at 43.1%.
The same measure, in the same setting: the result for `N#C/C(=N\Nc1ccc(F)cc1)C(=N)N1CCCCC1` reads 254%.
`O=C(/C=C/c1cccc(Oc2ccccc2)c1)N1CCOCC1`: the activity change, positive = activation turned out to be 201%.
Regarding `Cn1nnnc1SCC(=O)NCc1cccc(C(=O)O)c1`, the activity change, positive = activation stood at 37.7%.
`C[C@@H]1O[C@H](O[C@@H]2[C@H](C)O[C@H](O[C@@H]3[C@H](C)O[C@H](O[C@H]4CC[C@]5(C)[C@@H](CC[C@@H]6[C@H]5C[C@@H](O)[C@]5(C)[C@@H](C7=CC(=O)OC7)CC[C@]65O)C4)C[C@@H]3O)C[C@@H]2O)C[C@H](O)[C@@H]1O`: the “activity change, positive = activation” value is inactive: -81.8% [at 20.6 µM].
For the compound `Nc1ccc2oc3ccccc3c2c1`, the Potency is active: 11.2 µM.
As to `O=c1ccc2ccc(Oc3ccc([N+](=O)[O-])cc3[N+](=O)[O-])cc2o1`, the activity change, positive = activation turned out to be 41.7%.
On the same count and under the same terms, the result for `CCOc1cc(NC(=O)c2ccco2)c(OCC)cc1NC(=O)c1cc(OC)c(OC)c(OC)c1` reads 86.8%; that for `CCCc1[nH]nc2c1C1(C(=O)N(C(C)C)c3ccccc31)C(C#N)=C(N)O2` (centres undefined), 36.2%; that for `OC(CCN1CCOCC1)(c1ccc(Cl)cc1)C1CCCCC1` (centres undefined), 51.1%.
`CCOC(=O)C1CSc2[nH]c(=O)sc2C1c1ccccc1` (centres undefined): the activity change, positive = activation was found to be 20.4%.
On to `O=C(COC(=O)CNC(=O)c1ccco1)Nc1ccccc1OC(F)F`, for which the activity change, positive = activation was 30.3%.
As for `COCCNC(=S)N1CCC(C(=O)c2ccc3c(c2)OCCO3)CC1`, the activity change, positive = activation is -15.5%.
`Cc1cc(C)nc(Nc2n[nH]c(-c3ccc(C(C)(C)C)cc3)n2)n1`: the “activity change, positive = activation” value was inactive: -56%.
With `Brc1ccc(-c2csc(N3CCOCC3)n2)cc1`, the activity change, positive = activation came to 66.1%.
With `O=C(NC(=O)c1ccc(Cl)cc1)OC1CCCCC1`, the “activity change, positive = activation” value was inactive: 22%.
In the case of `Oc1ccc2ccccc2c1/C=N/Nc1nnc(-c2ncc[nH]2)c2ccccc12`, the “activity change, positive = activation” value is inactive: -116%.
`CNc1nc2cc([N+](=O)[O-])c([N+](=O)[O-])cc2nc1NC`: the activity change, positive = activation is -62.8%.
`CC(=O)c1ccc(NC(=O)COC(=O)c2c3c(nc4ccccc24)/C(=C\c2cccs2)CCC3)cc1`: the activity change, positive = activation is -101%.
In the case of `Cc1ccc(-c2nc3ccsc3c(=O)o2)cc1`, the “activity change, positive = activation” value was inactive: 105%.
Consider `Cc1ccc(-c2nc3cccnc3o2)cc1NC(=O)COc1ccc(Cl)cc1C`, for which the activity change, positive = activation stood at 52.7%.
Take `O=[N+]([O-])c1ccc(Nc2c3ccccc3nc3ccccc23)cc1`: the activity change, positive = activation is -59.6%.
On the same count and under the same terms, the result for `CCc1c(C)sc(NC(=O)CC#N)c1C#N` reads 35.8%.
For `CCOc1ccc(C(=O)NCCc2ccccc2)cc1`, the Potency is active: 3.55 µM.
As to `CCc1ccc2[nH]c(=O)c(CN(CCCN3CCOCC3)C(=O)Nc3ccccc3)cc2c1`, the activity change, positive = activation came to 41.7%.
For `O=S(=O)(c1ccc(NC(=S)NCCC(c2ccccc2)c2ccccc2)cc1)N1CCOCC1`, the “activity change, positive = activation” value is inactive: -55.1%.
With `Nc1nc(Cl)nc2c1ncn2[C@@H]1O[C@H](CO)[C@H](O)[C@H]1O`, the “activity change, positive = activation” value is inactive: -6.12%.
Turning to `CN(c1nc(-c2ccccc2)cs1)C1CCS(=O)(=O)C1` (centres undefined), the activity change, positive = activation amounted to 32.3%.
On to `COc1cccc(-c2nnc(SCCC(=O)O)n2C)c1`, for which the activity change, positive = activation came to 38.4%.
In the case of `O=C(c1ccc(F)cc1)N1CCN(c2ncccn2)CC1`, the activity change, positive = activation came out at 24.4%.
On the same count and under the same terms, the result for `O=C(O)Cc1sc(Nc2ccc(F)cc2)nc1-c1cccs1` reads 30.5%.
Take `Cc1ccc(-n2c(=O)c3sccc3n(Cc3cc(=O)n4cc(Cl)ccc4n3)c2=O)cc1F`: the Potency is active: 35.5 µM.
Regarding `COc1cc(C(=O)NC(=S)Nc2ccc(NC(=O)c3ccco3)cc2)cc(OC)c1OC`, the activity change, positive = activation was -10.1%.

The record behind these values is PubChem BioAssay AID1458 (National Center for Advancing Translational Sciences (NCATS), 2008).
